# Laboratory results reported in PubChem BioAssay AID504467 (National Center for Advancing Translational Sciences (NCATS), 2011).
# Hit rate of the full screen: of about 330,000 compounds, about 7,700 (2.3%) were called active. The shares of active, inactive and inconclusive entries below differ from those in the screen. The call rests on the fitted dose curve; in most records, active means well fitted inhibition curve with a large enough effect; inconclusive means small, poorly fitted or top-dose-only effect, or effect the other way; inactive means flat fitted curve, though single readings scatter. Where the call is inconclusive, the potency comes from a doubtful curve fit.
# Assay: qHTS screen for small molecules that inhibit ELG1-dependent DNA repair in human embryonic kidney (HEK293T) cells expressing luciferase-tagged ELG1; further: nearly all actives have a fitted effect of over 55% in size
# Conditions: HEK293T ELG1-luciferase reporter, luminescence, 16 h, DNA damage induced by 5-fluorouridine; series mostly up to 46.1 µM
# Summary of the method: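 Overnight (16 hr) co-exposure of 2,000 cells/well to 5-fluorouridine and compound at 37 °C preceded detection. Luciferase was quantified via ONE-Glo luminescence; loss of signal denotes inhibition.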
# Potency means the concentration at half of the fitted maximal effect.
row,SMILES,Potency
1,COc1ccc(/C=N\NS(=O)(=O)c2ccc(Cl)cc2)cc1COc1ccccc1[N+](=O)[O-],"inconclusive: 29.1 µM [inhibitor, single point]"
2,CCOC(=O)C1(CC2CCCCO2)CCN(C(=O)Nc2ccc(C(=O)OC)cc2)CC1 (stereo not drawn),inactive
3,COc1cc(/C=N/Nc2ccc(Cl)c(C(=O)O)c2)ccc1OC(=O)c1ccccc1F,inactive
4,Cc1ccc(C)c(N(CC(=O)NC2CCCC2)S(=O)(=O)c2ccccc2)c1,"inconclusive: 6.51 µM [inhibitor, single point]"
5,CC(C)c1ccc2c(c1)C(c1cccs1)=NNC(c1ccncc1)=N2,inactive
6,c1ccc(-n2ncc3c(N4CCCCC4)ncnc32)cc1,"inconclusive: 0.184 µM [activator, partial curve, poor fit]"
7,Cc1ccsc1CN(C)CC(=O)Nc1cccc(S(=O)(=O)N(C)c2ccccc2)c1,"inconclusive: 13 µM [inhibitor, partial curve]"
8,CCOc1ccc(/C=N/NC(=O)c2[nH]ncc2Br)c(O)c1,"inconclusive: 0.651 µM [activator, partial curve, poor fit]"
9,CCc1ccccc1S(=O)(=O)Cc1ccc(C(=O)NC2CCCC2)o1,inactive
10,CCc1ccc2nc(SCC(=O)Nc3ccccc3N3CCOCC3)c(C#N)cc2c1,"inconclusive: 2.31 µM [inhibitor, full curve]"
11,Cc1cc(Cl)ccc1OCC(=O)n1cc(C(=O)c2cc(Cl)ccc2O)cn1,"inconclusive: 8.2 µM [inhibitor, partial curve]"
12,CCc1ccc2c(COC(=O)c3n[nH]c4ccccc34)cc(=O)oc2c1,"inconclusive: 2.91 µM [activator, partial curve]"
13,COC(=O)c1cc(NC(=O)Cc2ccc(OC)cc2)cc(C(=O)OC)c1,"inconclusive: 23.1 µM [inhibitor, single point]"
14,COc1cccc(-c2nn(C)c3sc(C(=O)Nc4ccc5c(c4)OCCO5)cc23)c1,"inconclusive: 25.9 µM [inhibitor, single point]"
15,Cc1cccc(N2CCN(C(C)C(=O)N3CCc4ccccc43)CC2)c1C (stereo not drawn),inactive
16,CC1Oc2ccccc2N(Cc2cccc(F)c2)C1=O (stereo not drawn),"inconclusive: 1.46 µM [activator, partial curve]"
17,O=C(NC12CC3CC(CC(C3)C1)C2)N(Cc1ccccc1)Cc1ccncc1,"inconclusive: 16.4 µM [inhibitor, partial curve]"
18,COc1ccc(S(=O)(=O)N2CCCCCC2)cc1NC(=O)Cc1n[nH]c(=O)c2ccccc12,"inconclusive: 29.1 µM [inhibitor, single point]"
19,CC(C)n1c(/N=C/c2c[nH]c3ccccc23)nc2ccccc21,inactive
20,CCC(COC)NC(=O)CCc1nnc(Cc2cccc(C(F)(F)F)c2)o1 (stereo not drawn),"inconclusive: 20.6 µM [activator, single point]"
21,COc1ccc(CN2CCn3ncc(C(=O)Nc4cccc(C)c4)c3C2=O)cc1,"inconclusive: 29.1 µM [activator, single point]"
22,Cc1ccc(OCc2ccc(-c3ccccc3)cc2)c([N+](=O)[O-])n1,inactive
23,CC(NC(=O)c1cc(F)c(F)cc1Cl)C1CC2CCC1C2 (stereo not drawn),inactive
24,CC(C)Oc1ccccc1C1Nc2ccccc2C(=O)N1c1ccc2c(c1)OCCO2 (stereo not drawn),"inconclusive: 4.61 µM [activator, partial curve]"
25,Fc1ccc(CSc2nsc(SCc3ccc(F)cc3)n2)cc1,inactive

# In a second layout: entries from further up.
row | SMILES | Potency
2 | CCOC(=O)C1(CC2CCCCO2)CCN(C(=O)Nc2ccc(C(=O)OC)cc2)CC1 (stereo not drawn) | inactive
3 | COc1cc(/C=N/Nc2ccc(Cl)c(C(=O)O)c2)ccc1OC(=O)c1ccccc1F | inactive

# Of the compounds above, 2 have two or more sulfur atoms:
row,SMILES,Potency
7,Cc1ccsc1CN(C)CC(=O)Nc1cccc(S(=O)(=O)N(C)c2ccccc2)c1,"inconclusive: 13 µM [inhibitor, partial curve]"
25,Fc1ccc(CSc2nsc(SCc3ccc(F)cc3)n2)cc1,inactive

# Additional results

row,SMILES,Potency
1,Nc1c2c(nc3sc4c(c13)CCCC4)CCCCCC2,"inconclusive: 14.6 µM [activator, partial curve]"
2,COc1ccc(/C=N/NC(=S)Nc2ccccc2)cc1COc1cccc(C)c1C,inactive
3,COc1ccc(CCNc2oc(-c3cccc4ccccc34)nc2P(=O)(OC)OC)cc1OC,"inconclusive: 20.6 µM [inhibitor, partial curve]"
4,CC(=O)c1ccc(OCC(O)CN(C)CCOc2ccc(Br)cc2)cc1 (stereo not drawn),"inconclusive: 14.6 µM [inhibitor, partial curve, poor fit]"
5,O=C(O)c1ccc2c(c1)S(=O)(=O)N=C1CCCCCN12,inactive
6,CCC(C)NC(=O)c1cc(-c2ccccc2O)on1 (stereo not drawn),"inconclusive: 13 µM [activator, partial curve]"
7,COc1ccc(C)cc1NC(=O)CNC(C)C(=O)Nc1cc(Cl)ccc1Cl (stereo not drawn),"inconclusive: 20.6 µM [inhibitor, partial curve]"
8,CN1C(=O)/C(=C/C=C2\SCCN2C)OC1=S,"inconclusive: 13 µM [activator, partial curve]"
9,COc1ccccc1Nc1nc(NCCO)c2ccccc2n1,inactive
10,COc1ccc(NC(=O)COC(=O)C2CCN(S(=O)(=O)c3cccs3)CC2)cc1,inactive
11,CCOC(=O)N1CCN(CC(O)COc2ccccc2C(C)(C)C)CC1 (stereo not drawn),inactive
12,Cc1nn(C)cc1CNCc1c(C(=O)N2CCCCC2)nc2c(C)cccn12,"inconclusive: 20.6 µM [activator, partial curve, poor fit]"
13,Cc1cc(SCC(=O)NC2CC2)nc2ccccc12,"inconclusive: 16.4 µM [activator, partial curve]"
14,COc1ccc(/C(C)=N/N2C(C)CCCC2C)c(OC)c1 (stereo not drawn),inactive
15,COc1ccccc1/C=C/C(=O)OCC(=O)NNC(=O)c1ccccc1,inactive
16,CC(=O)c1ccc(NC(=S)NC(=O)CC(C)C)cc1,"inconclusive: 14.6 µM [activator, partial curve]"
17,CCN1C(c2ccccc2)=C(c2ccccc2)S/C1=C/C=C1\SC(=S)N(C)C1=O,active: 10.3 µM
18,CC(=O)NS(=O)(=O)c1ccc(NC(=O)/C=C/c2ccco2)cc1,inactive
19,CCCn1c(=O)c2[nH]c(-c3ccc(S(=O)(=O)O)cc3)nc2n(CCC)c1=O,inactive
20,Cc1ccc(Nc2nc(N)nc(CN3CCN(c4ccccc4)CC3)n2)cc1Cl,"inconclusive: 16.4 µM [inhibitor, single point]"
21,COc1ccc(NC(=O)CSc2nc(N)cc(N)n2)cc1S(=O)(=O)N1CCCCC1,inactive
22,CCc1ccc2[nH]c(C(=O)Nc3ccc(Br)c(C)n3)cc2c1,"inconclusive: 4.61 µM [activator, full curve]"
23,O=C(N/N=C/c1ccccc1F)c1csc2c1CCCC2,"inconclusive: 10.3 µM [activator, partial curve, poor fit]"
24,O=C(Nc1ccccc1F)c1ccc2c(c1)OCO2,"inconclusive: 14.1 µM [activator, partial curve]"
25,CCNC(=O)Nc1cc(S(=O)(=O)Nc2ccc(OC)cc2)ccc1N1CCOCC1,inactive

row,SMILES,Potency
1,O=C(CSc1nnc(-c2cccc(S(=O)(=O)N3CCCCC3)c2)o1)NCCC1=CCCCC1,inactive
2,O=C1c2ccccc2C(=O)N1CCCCN(C(=O)c1cccc([N+](=O)[O-])c1)c1ccc(Cl)cc1,"inconclusive: 35.5 µM [inhibitor, single point]"
3,CN(C)c1ccc(S(=O)(=O)N(C)C)cc1NC(=O)Cc1cccc2ccccc12,"inconclusive: 16.4 µM [inhibitor, single point]"
4,Cc1ccc(C)c(OCC(O)CN2C(C)CCCC2C)c1 (stereo not drawn),inactive
5,O=C(CNc1cccc(S(=O)(=O)N2CCOCC2)c1)Nc1cccc(Br)c1,"inconclusive: 16.4 µM [inhibitor, single point]"
6,O=C(COc1ccccc1)Nc1cc2c3c(c1)CC(=O)N3CCC2,"inconclusive: 9.2 µM [activator, single point]"
7,Clc1ccc(SCc2cn3ccccc3n2)cc1,"inconclusive: 20.6 µM [activator, partial curve]"
8,O=c1[nH]c(NCCO)nc2c1C1(CCCC1)Cc1ccccc1-2,inactive
9,COc1ccc(C(=O)c2c(N)sc3c2CCN(C(=O)OC(C)(C)C)C3)cc1,active: 23.1 µM
10,N/C(Cn1cncn1)=N\NC(=O)c1ccc(Cl)cc1Cl,inactive
11,O=C(Cc1ccc2c(c1)OCCO2)N/N=C/c1ccco1,inactive
12,O=C(NCc1ccc2c(c1)OCO2)C1CC(=O)N(CCc2ccc(Cl)cc2)C1 (stereo not drawn),inactive
13,COc1ccc(F)cc1C(=O)C1CCCN(C(=O)c2cccc(N(C)C)c2)C1 (stereo not drawn),inactive
14,CCN1/C(=C/c2ccc3ccccc3[n+]2CC)C=Cc2ccccc21,"inconclusive: 9.2 µM [inhibitor, partial curve, poor fit]"
15,NNC(=O)c1ccc(CSc2n[nH]c(=O)[nH]c2=O)cc1,"inconclusive: 23.1 µM [inhibitor, single point]"
16,COc1ccc(-n2nc(C(=O)N3CCN(c4ccc(F)cc4)CC3)c3ccccc3c2=O)c(OC)c1,active: 9.2 µM
17,Cc1cccn2c(=O)c(C=O)c(N3CCN(c4ccccc4)CC3)nc12,"inconclusive: 23.1 µM [inhibitor, partial curve, poor fit]"
18,N#Cc1nc(-c2cccs2)oc1N1CCN(c2ccccc2)CC1,"inconclusive: 18.4 µM [inhibitor, single point]"
19,CCc1nnc(NC(=O)CSc2nc3cc(OC)ccc3cc2C)s1,"inconclusive: 29.1 µM [inhibitor, single point]"
20,Cc1cccc(OCC(O)Cn2c(=N)n(CCN3CCCCC3)c3ccccc32)c1 (stereo not drawn),"inconclusive: 8.2 µM [inhibitor, partial curve, poor fit]"
21,CCc1ccc(-c2cc(C(=O)NCc3ccccn3)c3ccccc3n2)cc1,"inconclusive: 20.6 µM [inhibitor, single point]"
22,CCn1c2ccccc2c2cc(CNCCCN3CCOCC3)ccc21,inactive
23,COc1ccc(/C=N/NC(=O)c2[nH]c3ccc(Br)cc3c2-c2ccccc2)c(C(=O)O)c1OC,"inconclusive: 25.9 µM [activator, partial curve, poor fit]"
